Where a chain is given by its changes, count along the chain named. Results are given in words; binding and its absence hold for the method and conditions named. Some binding calls cover weakened binding; strength is not graded here.
B1: MS-R #7.9.H7 IgG1 (antibody, V domains shown)
VH: QVELVESGGGLVQPGGSLRLSCAASGFTFSSYAMSWVRQAPGKGLEWVSAINASGTRTYYADSVKGRFTISRDNSKNTLYLQMNSLRAEDTAVYYCARGKGNTHKPYGYVRYFDVWGQGTLVTVSS
VL: DIVLTQSPATLSLSPGERATLSCRASQSVSSSYLAWYQQKPGQAPRLLIYGASSRATGVPARFSGSGSGTDFTLTISSLEPEDFATYYCLQIYNMPITFGQGTKVEIKR
B2: MS-Roche #7.9.H2 Fab (Fab, V domains shown)
VH: B1 VH with E3Q, S54D, T56N, T58K
VL: B1 VL
B3: MS-Roche #7.9.H3 Fab (Fab, V domains shown)
VH: B1 VH with E3Q, A53Y, S54Q, T56N, T58K
VL: B1 VL

The chains behind the UniProt entries cited, without tags or fusion partners. Residues count along the entry.
UniProt P05067, residues 672-713: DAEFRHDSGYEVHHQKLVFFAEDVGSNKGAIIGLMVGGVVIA

Tests used:
[1] = biological target: amyloid plaques in cryostat sections of human temporal cortex (Alzheimer's disease) (human) (UniProt P05067); experiment: indirect immunofluorescence on cryostat sections of human AD temporal cortex, goat anti-human (H+L)-Cy3
[2] = biological target: amyloid plaques in cryostat sections of human temporal cortex (Alzheimer's disease) (human) (UniProt P05067); experiment: indirect immunofluorescence, AD brain sections, 0.05 and 0.01 µg/ml
[3] = biological target: amyloid plaques in cryostat sections of human temporal cortex (Alzheimer's disease) (human) (UniProt P05067); experiment: immunohistochemistry, AD brain sections

| Binder | binding [1] | binding [2] | binding [3] |
| --- | --- | --- | --- |
| B1 | binds | binds |  |
| B2 |  |  | binds |
| B3 |  |  | binds |

From US20100172907A1
